Literature values in US11090389B2, “Mitochondrially targeted PARP inhibitor, and uses thereof” (University of Pittsburgh—Of the Commonwealth System of …, priority 2016, dated 2021).
At least one structure is not confirmed: it was looked up by name or label, or the drawing left a doubt.

Conditions: cited from earlier work

Question: For `CC(C)C[C@@H](/C=C/[C@H](Cc1ccccc1)C(=O)N1CCC[C@H]1C(=O)N[C@H](C(=O)N[C@@H](CCCNC(=O)OCc1ccccc1)C(=O)NC1CC(C)(C)N([O])C(C)(C)C1)C(C)C)NC(=O)OC(C)(C)C` [XJB-5-131], which “enrichment in mitochondria over the cytosol” value is on record?
Answer: ca. 600 fold
